# Where a chain is given by its changes, count along the chain named. Some of the results follow.
# Legend:
# Settings in all cases: yeast three-hybrid, YBZ-1, SC-Leu-His + 0.5 mM 3-AT, 4 days
# [1] = biological target: T1, PUM1 PUF domain R4-APF N971A + H972P + Q975F (Homo sapiens) (UniProt Q14671)
# T1 sequence: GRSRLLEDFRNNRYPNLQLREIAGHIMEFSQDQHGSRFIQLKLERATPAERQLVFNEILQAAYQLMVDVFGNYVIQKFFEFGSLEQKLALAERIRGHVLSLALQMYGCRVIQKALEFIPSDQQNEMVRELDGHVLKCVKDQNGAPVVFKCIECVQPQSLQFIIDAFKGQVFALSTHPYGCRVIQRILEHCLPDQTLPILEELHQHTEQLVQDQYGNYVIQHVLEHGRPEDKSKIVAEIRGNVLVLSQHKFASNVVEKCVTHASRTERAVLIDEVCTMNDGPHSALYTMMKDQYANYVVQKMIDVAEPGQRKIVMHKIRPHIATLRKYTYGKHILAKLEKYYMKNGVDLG
# [2] = biological target: T2, PUM1 PUF domain R4-DFT N971D + H972F + Q975T (Homo sapiens) (UniProt Q14671)
# T2 sequence: T1 sequence with A144D, P145F, F148T
# [3] = biological target: T3, PUM1 PUF domain R4-DHL N971D + Q975L (Homo sapiens) (UniProt Q14671)
# T3 sequence: T1 sequence with A144D, P145H, F148L
# [4] = biological target: T4, PUM1 PUF domain R4-EFG N971E + H972F + Q975G (Homo sapiens) (UniProt Q14671)
# T4 sequence: T1 sequence with A144E, P145F, F148G
# [5] = biological target: T5, PUM1 PUF domain R4-FNG N971F + H972N + Q975G (Homo sapiens) (UniProt Q14671)
# T5 sequence: T1 sequence with A144F, P145N, F148G
# [6] = biological target: T6, PUM1 PUF domain R4-GMG N971G + H972M + Q975G (Homo sapiens) (UniProt Q14671)
# T6 sequence: T1 sequence with A144G, P145M, F148G
# [7] = biological target: T7, PUM1 PUF domain R4-GRI N971G + H972R + Q975I (Homo sapiens) (UniProt Q14671)
# T7 sequence: T1 sequence with A144G, P145R, F148I
# [8] = biological target: T8, PUM1 PUF domain R4-MPH N971M + H972P + Q975H (Homo sapiens) (UniProt Q14671)
# T8 sequence: T1 sequence with A144M, F148H
# [9] = biological target: T9, PUM1 PUF domain R4-MPV N971M + H972P + Q975V (Homo sapiens) (UniProt Q14671)
# T9 sequence: T1 sequence with A144M, F148V
# [10] = biological target: T10, PUM1 PUF domain R4-RCG N971R + H972C + Q975G (Homo sapiens) (UniProt Q14671)
# T10 sequence: T1 sequence with A144R, P145C, F148G
# [11] = biological target: T11, PUM1 PUF domain R4-RMG N971R + H972M + Q975G (Homo sapiens) (UniProt Q14671)
# T11 sequence: T1 sequence with A144R, P145M, F148G
# [12] = biological target: T12, PUM1 PUF domain R4-SML N971S + H972M + Q975L (Homo sapiens) (UniProt Q14671)
# T12 sequence: T1 sequence with A144S, P145M, F148L
# [13] = biological target: T13, PUM1 PUF domain R4-SMS N971S + H972M + Q975S (Homo sapiens) (UniProt Q14671)
# T13 sequence: T1 sequence with A144S, P145M, F148S
# [14] = biological target: T14, PUM1 PUF domain R4-SPV N971S + H972P + Q975V (Homo sapiens) (UniProt Q14671)
# T14 sequence: T1 sequence with A144S, F148V
# [15] = biological target: T15, PUM1 PUF domain R4-SRI N971S + H972R + Q975I (Homo sapiens) (UniProt Q14671)
# T15 sequence: T1 sequence with A144S, P145R, F148I
# [16] = biological target: T16, PUM1 PUF domain R4-SRW N971S + H972R + Q975W (Homo sapiens) (UniProt Q14671)
# T16 sequence: T1 sequence with A144S, P145R, F148W
# [17] = biological target: T17, PUM1 PUF domain R4-SRY N971S + H972R + Q975Y (Homo sapiens) (UniProt Q14671)
# T17 sequence: T1 sequence with A144S, P145R, F148Y
# [18] = biological target: T18, PUM1 PUF domain R4-VRT N971V + H972R + Q975T (Homo sapiens) (UniProt Q14671)
# T18 sequence: T1 sequence with A144V, P145R, F148T
# [19] = biological target: T19, PUM1 PUF domain R4-WGF N971W + H972G + Q975F (Homo sapiens) (UniProt Q14671)
# T19 sequence: T1 sequence with A144W, P145G
# [20] = biological target: T20, PUM1 PUF domain R4-YRL N971Y + H972R + Q975L (Homo sapiens) (UniProt Q14671)
# T20 sequence: T1 sequence with A144Y, P145R, F148L
sequence,measurement,setting,value
GGCUAGAACUAGUGGAUCCCCCGGCGCCCGGCGGCUCGAGCCCGGGUAAGUGUACAUAGUCUGCAUGCCGCCGGGCGCCAUGCCUGCAGGUCGACUCUAGAAAACAUG,binding signal (log2 enrichment (interaction score)),[1],-0.81
same,binding signal (log2 enrichment (interaction score)),[2],-0.91
same,binding signal (log2 enrichment (interaction score)),[3],-0.06
same,binding signal (log2 enrichment (interaction score)),[4],-0.43
same,binding signal (log2 enrichment (interaction score)),[5],-0.41
same,binding signal (log2 enrichment (interaction score)),[6],-0.41
same,binding signal (log2 enrichment (interaction score)),[7],-0.6
same,binding signal (log2 enrichment (interaction score)),[8],-0.87
same,binding signal (log2 enrichment (interaction score)),[9],-0.92
same,binding signal (log2 enrichment (interaction score)),[10],-0.5
same,binding signal (log2 enrichment (interaction score)),[11],-0.58
same,binding signal (log2 enrichment (interaction score)),[12],-5.1
same,binding signal (log2 enrichment (interaction score)),[13],-0.32
same,binding signal (log2 enrichment (interaction score)),[14],-0.22
same,binding signal (log2 enrichment (interaction score)),[15],-0.07
same,binding signal (log2 enrichment (interaction score)),[16],-0.06
same,binding signal (log2 enrichment (interaction score)),[17],-0.62
same,binding signal (log2 enrichment (interaction score)),[18],-0.53
same,binding signal (log2 enrichment (interaction score)),[19],-0.89
same,binding signal (log2 enrichment (interaction score)),[20],-1.24

# Reformatted: entries from further up.
sequence	measurement	setting	value
GGCUAGAACUAGUGGAUCCCCCGGCGCCCGGCGGCUCGAGCCCGGGUAAGUGUACAUAGUCUGCAUGCCGCCGGGCGCCAUGCCUGCAGGUCGACUCUAGAAAACAUG	binding signal (log2 enrichment (interaction score))	[13]	-0.32
same	binding signal (log2 enrichment (interaction score))	[17]	-0.62

# — paper PMC8384837
